Laboratory results published in patent publication US9018213B2, “Alicyclic[c] benzopyrone derivatives and uses thereof” (Huazhong University of Science & Technology, priority 2011, dated 2015).
Values joined by “and” are separate entries in the source; they are usually repeats but may differ in a detail not shown here. Equal entries are not always repeated.

Test system: KM mice
Experiment: Catalepsy assay
Conditions: ratio of ED50 values

Structure (SMILES): O=c1oc2c(Cl)c(OCCCCN3CCN(c4nsc5ccccc45)CC3)ccc2c2c1CCC2 [Compound 14, 7-{4-[4-(3-(1,2-benzisothiazole)-1-piperazinyl)-n-butoxy]}-6-chloro-2,3-dihydro-1H-cyclopenteno[c]benzopyran-4-one]
- catalepsy/MK-801 induced high activity: 230.79
- catalepsy/apomorphine induced clambering: 757

Structure (SMILES): OCCOCCN1CCN(C2=Nc3ccccc3Sc3ccccc32)CC1 [quetiapine]
- catalepsy/MK-801 induced high activity: 79.21
- catalepsy/apomorphine induced clambering: 396.04

Structure (SMILES): CN1CCN(C2=Nc3cc(Cl)ccc3Nc3ccccc32)CC1 [clozapine]
- catalepsy/MK-801 induced high activity: >21.93 and 21.93
- catalepsy/apomorphine induced clambering: >5.58

Structure (SMILES): Cc1cc2c(s1)Nc1ccccc1N=C2N1CCN(C)CC1 [olanzapine]
- catalepsy/apomorphine induced clambering: 20.27

Structure (SMILES): O=c1oc2c(Cl)c(OCCCCN3CCC(c4noc5cc(F)ccc45)CC3)ccc2c2c1CCC2 [Compound 15, 7-{4-[4-(3-(6-fluoro-benzisoxazole)-1-piperidyl)-butoxy]}-6-chloro-2,3-dihydro-1H-cyclopenteno[c]benzopyran-4-one]
- catalepsy/MK-801 induced high activity: 79.09
- catalepsy/apomorphine induced clambering: 176.54

Structure (SMILES): COc1ccccc1N1CCN(CCCCOc2ccc3c4c(c(=O)oc3c2)CCC4)CC1 [Compound 7, 7-{4-[4-(2-methoxyphenyl)piperazin-1-yl]-butoxy}-2,3-dihydro-1H-cyclopenteno[c]benzopyran-4-one]
- catalepsy/MK-801 induced high activity: 127.56
- catalepsy/apomorphine induced clambering: 2011.46

Structure (SMILES): O=C1CCc2ccc(OCCCCN3CCN(c4cccc(Cl)c4Cl)CC3)cc2N1 [aripiprazole]
- catalepsy/MK-801 induced high activity: 20.00
- catalepsy/apomorphine induced clambering: 11.43

Structure (SMILES): O=C(CCCN1CCC(O)(c2ccc(Cl)cc2)CC1)c1ccc(F)cc1 [haloperidol]
- catalepsy/MK-801 induced high activity: 4.40
- catalepsy/apomorphine induced clambering: 4.89

Structure (SMILES): O=C1Cc2cc(CCN3CCN(c4nsc5ccccc45)CC3)c(Cl)cc2N1 [ziprasidone]
- catalepsy/MK-801 induced high activity: 54.29
- catalepsy/apomorphine induced clambering: 82.16

Structure (SMILES): O=c1oc2cc(OCCCN3CCC(c4noc5cc(F)ccc45)CC3)ccc2c2c1CCC2 [Compound 5, 7-{3-[4-(3-(6-fluoro-benzisoxazole)-1-piperidyl)-n-propoxy]}-2,3-dihydro-1H-cyclopenteno[c]benzopyran-4-one]
- catalepsy/MK-801 induced high activity: 480.91
- catalepsy/apomorphine induced clambering: 247.53

Structure (SMILES): COc1ccccc1N1CCN(CCCCOc2ccc3c4c(c(=O)oc3c2)CCCC4)CC1 [Compound 19, 3-{4-[4-(2-methoxyphenyl)piperazin-1-yl]-butoxy}-7,8,9,10-tetrahydrobenzo[c]benzopyran-6-one]
- catalepsy/MK-801 induced high activity: 66.53
- catalepsy/apomorphine induced clambering: 1042.33
